Laboratory results published in article PMC2829546.
These are yes or no findings as the source states them, for the method shown. Binding seen in cells or lysates may run through a third protein. Some binding calls cover weakened binding; strength is not graded here.

By UniProt entry, the sequences of proteins in these tests, tags left out. Where a name states a change or a piece, a line headed by the entry shows the natural chain unless it says otherwise. Chains listed by the source or under a name are the forms on record and can include a tag or linker. Residues count along the entry.
mGluR1, endogenous in rat brain (rat (endogenous in rat brain)) (P23385, residues 19-1199): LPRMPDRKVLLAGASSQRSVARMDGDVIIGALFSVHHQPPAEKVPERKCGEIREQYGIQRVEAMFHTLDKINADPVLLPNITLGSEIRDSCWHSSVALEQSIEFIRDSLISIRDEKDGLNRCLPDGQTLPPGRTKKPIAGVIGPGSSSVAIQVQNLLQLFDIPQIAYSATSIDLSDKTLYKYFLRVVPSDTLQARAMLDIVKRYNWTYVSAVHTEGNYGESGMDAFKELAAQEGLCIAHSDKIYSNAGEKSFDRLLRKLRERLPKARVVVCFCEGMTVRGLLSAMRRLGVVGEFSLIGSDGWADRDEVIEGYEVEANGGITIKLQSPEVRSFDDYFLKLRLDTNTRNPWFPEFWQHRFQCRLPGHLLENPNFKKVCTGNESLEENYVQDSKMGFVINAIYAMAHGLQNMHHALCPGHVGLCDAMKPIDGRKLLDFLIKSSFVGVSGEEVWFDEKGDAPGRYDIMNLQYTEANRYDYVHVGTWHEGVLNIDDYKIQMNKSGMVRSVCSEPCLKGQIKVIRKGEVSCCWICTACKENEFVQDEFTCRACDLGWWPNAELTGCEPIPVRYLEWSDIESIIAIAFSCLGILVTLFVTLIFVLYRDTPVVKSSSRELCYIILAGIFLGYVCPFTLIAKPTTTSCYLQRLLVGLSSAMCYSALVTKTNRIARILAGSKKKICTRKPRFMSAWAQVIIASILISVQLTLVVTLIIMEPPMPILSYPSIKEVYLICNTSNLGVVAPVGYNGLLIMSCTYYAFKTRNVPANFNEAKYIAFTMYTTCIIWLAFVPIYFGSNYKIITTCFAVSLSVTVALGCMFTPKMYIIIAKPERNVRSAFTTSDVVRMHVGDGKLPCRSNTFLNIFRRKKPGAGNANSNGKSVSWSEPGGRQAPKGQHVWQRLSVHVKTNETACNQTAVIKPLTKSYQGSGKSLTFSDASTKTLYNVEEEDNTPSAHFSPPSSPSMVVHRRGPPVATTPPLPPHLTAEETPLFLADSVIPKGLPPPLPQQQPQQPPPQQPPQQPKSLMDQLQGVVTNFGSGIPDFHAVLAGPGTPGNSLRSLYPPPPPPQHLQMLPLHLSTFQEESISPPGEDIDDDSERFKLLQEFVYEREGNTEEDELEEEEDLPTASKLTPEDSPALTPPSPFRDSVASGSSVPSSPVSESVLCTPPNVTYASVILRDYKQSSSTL
FLAG-mGluR1b (mGluR1b splice variant) (P23385, form named): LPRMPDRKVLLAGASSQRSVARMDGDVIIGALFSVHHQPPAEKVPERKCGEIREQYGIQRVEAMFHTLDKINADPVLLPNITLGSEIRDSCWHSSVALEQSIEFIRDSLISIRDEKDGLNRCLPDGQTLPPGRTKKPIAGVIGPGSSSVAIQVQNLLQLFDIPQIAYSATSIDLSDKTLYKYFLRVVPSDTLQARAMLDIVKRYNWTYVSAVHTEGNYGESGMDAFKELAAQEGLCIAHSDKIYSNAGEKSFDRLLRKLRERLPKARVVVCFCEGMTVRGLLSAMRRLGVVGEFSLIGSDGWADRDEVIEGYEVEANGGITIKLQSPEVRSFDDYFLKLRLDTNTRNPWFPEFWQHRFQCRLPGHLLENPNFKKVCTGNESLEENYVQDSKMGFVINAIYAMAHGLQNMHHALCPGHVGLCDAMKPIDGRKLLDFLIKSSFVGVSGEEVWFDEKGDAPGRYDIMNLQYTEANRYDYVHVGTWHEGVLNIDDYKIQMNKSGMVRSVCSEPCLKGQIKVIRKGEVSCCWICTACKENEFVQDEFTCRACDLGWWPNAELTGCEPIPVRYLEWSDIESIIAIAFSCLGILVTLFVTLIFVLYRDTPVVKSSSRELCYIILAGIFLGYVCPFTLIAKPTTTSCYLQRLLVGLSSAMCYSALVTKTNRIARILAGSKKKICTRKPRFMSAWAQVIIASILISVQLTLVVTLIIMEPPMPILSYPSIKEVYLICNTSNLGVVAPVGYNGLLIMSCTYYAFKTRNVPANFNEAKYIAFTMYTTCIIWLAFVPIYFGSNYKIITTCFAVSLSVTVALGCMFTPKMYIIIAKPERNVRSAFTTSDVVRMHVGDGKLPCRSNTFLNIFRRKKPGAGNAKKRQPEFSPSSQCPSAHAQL
UniProt P31424, residues 21-1203: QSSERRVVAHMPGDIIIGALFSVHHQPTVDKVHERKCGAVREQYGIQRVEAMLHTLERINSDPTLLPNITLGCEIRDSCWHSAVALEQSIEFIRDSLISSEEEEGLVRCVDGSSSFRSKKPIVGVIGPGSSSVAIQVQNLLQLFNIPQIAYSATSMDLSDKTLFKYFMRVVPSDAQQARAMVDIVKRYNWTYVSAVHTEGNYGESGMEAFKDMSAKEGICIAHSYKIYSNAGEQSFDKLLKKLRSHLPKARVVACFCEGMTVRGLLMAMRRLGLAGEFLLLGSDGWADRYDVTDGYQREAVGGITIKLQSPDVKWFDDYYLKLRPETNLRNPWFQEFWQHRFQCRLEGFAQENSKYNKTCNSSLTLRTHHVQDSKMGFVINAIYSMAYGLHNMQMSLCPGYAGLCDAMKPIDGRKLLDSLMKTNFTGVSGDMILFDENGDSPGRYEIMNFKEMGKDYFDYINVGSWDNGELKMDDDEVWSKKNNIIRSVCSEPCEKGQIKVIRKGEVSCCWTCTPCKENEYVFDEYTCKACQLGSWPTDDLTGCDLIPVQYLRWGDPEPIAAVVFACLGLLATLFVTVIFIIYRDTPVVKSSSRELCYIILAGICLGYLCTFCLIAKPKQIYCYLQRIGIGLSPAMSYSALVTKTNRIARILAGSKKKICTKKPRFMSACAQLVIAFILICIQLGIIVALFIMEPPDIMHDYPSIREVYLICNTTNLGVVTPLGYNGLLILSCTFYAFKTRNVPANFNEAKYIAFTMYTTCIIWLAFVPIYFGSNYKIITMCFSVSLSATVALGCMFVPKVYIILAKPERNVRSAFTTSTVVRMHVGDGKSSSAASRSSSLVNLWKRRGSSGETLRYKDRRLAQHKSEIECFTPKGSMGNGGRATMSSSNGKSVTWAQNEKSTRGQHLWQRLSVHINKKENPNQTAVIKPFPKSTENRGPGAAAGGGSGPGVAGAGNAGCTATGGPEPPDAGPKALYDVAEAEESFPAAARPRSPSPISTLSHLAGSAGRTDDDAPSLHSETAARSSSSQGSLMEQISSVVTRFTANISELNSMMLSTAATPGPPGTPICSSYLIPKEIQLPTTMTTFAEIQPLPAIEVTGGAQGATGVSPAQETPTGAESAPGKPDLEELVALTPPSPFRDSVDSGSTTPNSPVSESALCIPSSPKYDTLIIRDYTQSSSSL
UniProt Q14289: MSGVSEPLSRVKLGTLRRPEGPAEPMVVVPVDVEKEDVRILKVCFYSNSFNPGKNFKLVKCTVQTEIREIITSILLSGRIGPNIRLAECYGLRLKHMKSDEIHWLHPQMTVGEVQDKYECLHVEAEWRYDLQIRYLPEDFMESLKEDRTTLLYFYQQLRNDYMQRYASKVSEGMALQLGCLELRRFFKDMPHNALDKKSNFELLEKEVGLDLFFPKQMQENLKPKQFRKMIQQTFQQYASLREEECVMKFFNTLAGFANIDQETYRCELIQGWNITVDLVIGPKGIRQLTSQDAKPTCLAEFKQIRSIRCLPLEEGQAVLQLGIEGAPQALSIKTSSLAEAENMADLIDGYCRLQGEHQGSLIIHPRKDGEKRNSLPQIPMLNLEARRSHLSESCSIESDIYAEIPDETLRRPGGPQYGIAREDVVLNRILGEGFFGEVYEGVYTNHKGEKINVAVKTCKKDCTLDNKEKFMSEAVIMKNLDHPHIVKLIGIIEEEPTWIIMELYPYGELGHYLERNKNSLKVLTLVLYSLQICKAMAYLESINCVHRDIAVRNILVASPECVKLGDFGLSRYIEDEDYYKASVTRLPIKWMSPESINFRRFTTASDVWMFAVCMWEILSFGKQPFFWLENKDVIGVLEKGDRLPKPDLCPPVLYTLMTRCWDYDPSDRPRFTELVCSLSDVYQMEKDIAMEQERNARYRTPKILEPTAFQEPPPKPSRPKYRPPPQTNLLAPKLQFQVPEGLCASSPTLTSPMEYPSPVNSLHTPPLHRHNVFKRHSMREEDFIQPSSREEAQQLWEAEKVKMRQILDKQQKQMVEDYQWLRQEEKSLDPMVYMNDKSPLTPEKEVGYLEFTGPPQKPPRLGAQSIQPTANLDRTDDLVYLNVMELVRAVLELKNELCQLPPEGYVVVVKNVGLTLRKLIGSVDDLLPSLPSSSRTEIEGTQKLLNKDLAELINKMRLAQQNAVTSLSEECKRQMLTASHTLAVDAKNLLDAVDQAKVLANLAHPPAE
UniProt P70600: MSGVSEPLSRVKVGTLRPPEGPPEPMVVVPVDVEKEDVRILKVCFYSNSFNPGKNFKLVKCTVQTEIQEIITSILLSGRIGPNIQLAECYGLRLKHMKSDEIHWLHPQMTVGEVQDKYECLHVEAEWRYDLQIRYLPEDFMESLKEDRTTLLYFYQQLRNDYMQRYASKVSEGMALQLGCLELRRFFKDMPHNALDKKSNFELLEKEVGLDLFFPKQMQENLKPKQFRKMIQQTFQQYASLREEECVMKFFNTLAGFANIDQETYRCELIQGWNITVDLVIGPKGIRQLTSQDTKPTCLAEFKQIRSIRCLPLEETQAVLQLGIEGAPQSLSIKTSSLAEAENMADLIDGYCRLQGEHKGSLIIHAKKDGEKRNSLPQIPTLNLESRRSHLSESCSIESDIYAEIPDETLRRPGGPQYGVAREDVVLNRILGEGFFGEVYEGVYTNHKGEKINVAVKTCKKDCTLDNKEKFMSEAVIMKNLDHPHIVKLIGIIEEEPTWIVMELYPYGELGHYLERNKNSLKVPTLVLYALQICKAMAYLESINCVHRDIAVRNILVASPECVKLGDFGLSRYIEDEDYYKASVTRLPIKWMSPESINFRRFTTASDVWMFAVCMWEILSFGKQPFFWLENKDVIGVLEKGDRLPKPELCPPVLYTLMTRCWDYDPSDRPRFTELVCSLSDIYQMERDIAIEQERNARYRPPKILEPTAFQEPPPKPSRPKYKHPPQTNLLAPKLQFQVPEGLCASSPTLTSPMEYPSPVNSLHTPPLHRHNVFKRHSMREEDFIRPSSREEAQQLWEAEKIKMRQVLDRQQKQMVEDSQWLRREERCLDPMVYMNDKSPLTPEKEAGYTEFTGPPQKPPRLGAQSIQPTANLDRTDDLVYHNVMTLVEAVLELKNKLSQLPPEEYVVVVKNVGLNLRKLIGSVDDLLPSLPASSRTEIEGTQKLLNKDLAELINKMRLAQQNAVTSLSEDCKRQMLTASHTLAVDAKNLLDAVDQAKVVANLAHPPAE

How the values were obtained:
[1] = target: FLAG-mGluR1a (metabotropic glutamate receptor 1a) (UniProt P23385); test: co-IP; HEK293 cells transiently transfected; 500-1000 ug lysate protein; lysis buffer 25 mM HEPES pH 7.5, 300 mM NaCl, 1.5 mM MgCl2, 0.2 mM EDTA, 0.1% Triton X-100; FLAG-tagged mGluR1 immunoprecipitated with FLAG Sepharose beads overnight at 4 C; cells untreated or treated with 30 uM quisqualate (0-30 min); GDP-AlF4- treatment in Fig. 4C
[2] = target: FLAG-mGluR1b (mGluR1b splice variant) (UniProt P23385); test: as above
[3] = target: mGluR1, endogenous in rat brain (rat (endogenous in rat brain)) (UniProt P23385); test: co-IP; adult rat whole brain lysate, 500-1000 ug supernatant protein; polyclonal anti-mGluR1a or anti-mGluR5a rabbit antibodies and protein G-Sepharose beads overnight at 4 C; blot for Pyk2
[4] = target: mGluR5, endogenous in rat brain (rat (endogenous in rat brain)) (UniProt P31424); test: as above

Row | Substance | binding [1] | binding [2] | binding [3] | binding [4]
1 | HA-Pyk2 (proline-rich tyrosine kinase 2), expressed in HEK293 cells (from UniProt Q14289 1-1009) (enzyme) | binds | binds | – | –
2 | Pyk2, endogenous in rat brain (from UniProt P70600 1-1009) (enzyme) | – | – | binds | binds
